Data as given in article PMC6030205.
No constants are given. Whether binding was seen depends on the method and setting. In cells and extracts the contact can be indirect. A result given as binding can be weak or reduced; the word gives no strength.

Amino acid sequences for entries named in this document (tags omitted). A change or cut given only in a name is not applied to a line headed by its entry.
UniProt O48716: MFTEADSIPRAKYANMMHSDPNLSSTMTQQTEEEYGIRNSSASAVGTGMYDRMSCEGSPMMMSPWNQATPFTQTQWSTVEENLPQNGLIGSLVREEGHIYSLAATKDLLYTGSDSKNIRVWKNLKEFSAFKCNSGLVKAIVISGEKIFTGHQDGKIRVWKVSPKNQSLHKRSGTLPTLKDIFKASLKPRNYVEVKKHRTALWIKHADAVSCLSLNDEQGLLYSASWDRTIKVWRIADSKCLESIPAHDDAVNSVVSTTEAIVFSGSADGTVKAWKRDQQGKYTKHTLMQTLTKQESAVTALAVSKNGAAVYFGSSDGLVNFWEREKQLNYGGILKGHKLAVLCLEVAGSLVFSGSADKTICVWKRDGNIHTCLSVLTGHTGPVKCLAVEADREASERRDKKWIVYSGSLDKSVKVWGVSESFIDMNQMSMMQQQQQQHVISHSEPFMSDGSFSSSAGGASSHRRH
UniProt Q9C9X5: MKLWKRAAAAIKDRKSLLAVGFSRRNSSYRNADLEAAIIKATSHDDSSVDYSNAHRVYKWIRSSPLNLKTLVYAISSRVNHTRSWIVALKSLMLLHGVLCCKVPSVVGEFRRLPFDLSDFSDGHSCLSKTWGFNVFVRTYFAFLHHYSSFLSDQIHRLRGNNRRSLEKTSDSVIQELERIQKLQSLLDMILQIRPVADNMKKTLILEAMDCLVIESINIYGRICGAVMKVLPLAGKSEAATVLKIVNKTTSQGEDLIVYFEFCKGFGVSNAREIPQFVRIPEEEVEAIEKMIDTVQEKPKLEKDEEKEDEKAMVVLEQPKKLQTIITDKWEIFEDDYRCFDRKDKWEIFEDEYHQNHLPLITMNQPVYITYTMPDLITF

Target: MBP-REN4 (Arabidopsis) (UniProt O48716)
Test: pull-down; MBP-REN4 on amylose beads; EAP1-RFP from transgenic Arabidopsis pollen tubes; MBP and amylose beads as negative control; only the target purified

EAP1-RFP (from UniProt Q9C9X5)
binding: binds
